Some entries share one result that the patent states for a list of compounds.
Assay: Hydrodynamic diameter of complexes by dynamic light scattering (DLS)
Assay type: physicochemical
Conditions: N/P 6
Description: Sizes of complexes described in the present examples were analyzed by DynaPro PlateReader II, using dynamic light scattering (DLS) for calculating the hydrodynamic diameter of complexes. The formulations are measured by diluting the sample to 0.0125 mg/mL RNA in 120 μl of MGB (10 mM MES, pH 6.1, 5% D-Glucose) 5% in wells of a 96-well plate. Ten acquisitions are recorded per well, each lasting 5 seconds.

With CCCCCCCCCC(=O)OC1C(OC(=O)CCCCCCCCC)[C@H](OC(=O)CCCCCCCCC)C(CSCCNC(=S)NCCN(CCO)CCO)O[C@@H]1O[C@H]1OC(CSCCNC(=S)NCCN(CCO)CCO)[C@@H](OC(=O)CCCCCCCCC)C(OC(=O)CCCCCCCCC)C1OC(=O)CCCCCCCCC (stereo partly shown) [JLF142] the “Hydrodynamic diameter of complexes with modRNA” value was “over 100 nm”.

Reference: patent US20240425541A1, “OLIGOSACCHARIDE COMPOUNDS AND COMPLEXES” (priority 2021, published 2024)
